Article PMC11189300
Results are given in words; binding and its absence hold for the method and conditions named. Some binding calls cover weakened binding; strength is not graded here.

Chains of the proteins cited; added tags and fusions are not shown.
UniProt Q9H081: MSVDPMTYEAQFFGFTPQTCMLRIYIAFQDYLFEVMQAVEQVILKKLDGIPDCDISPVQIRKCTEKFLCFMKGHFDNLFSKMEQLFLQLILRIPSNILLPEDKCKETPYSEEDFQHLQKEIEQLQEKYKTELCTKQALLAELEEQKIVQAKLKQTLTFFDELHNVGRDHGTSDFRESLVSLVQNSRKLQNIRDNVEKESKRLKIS

Assays:
[1] = target: T1, DSN1 (subunit of Mis12C in the KMN structure) (human) (UniProt Q9H410); assay: cryo-EM structure; eight-subunit KMN (full-length Mis12C, SPC24 109–197/SPC25 92–224, ZWINT, KNL1 2,021–2,342), 0.3 mg/ml with 0.003% Triton; reconstruction at 4.5 Å; model fitted from known structures and AF2 predictions and refined against the map; both purified
T1 sequence: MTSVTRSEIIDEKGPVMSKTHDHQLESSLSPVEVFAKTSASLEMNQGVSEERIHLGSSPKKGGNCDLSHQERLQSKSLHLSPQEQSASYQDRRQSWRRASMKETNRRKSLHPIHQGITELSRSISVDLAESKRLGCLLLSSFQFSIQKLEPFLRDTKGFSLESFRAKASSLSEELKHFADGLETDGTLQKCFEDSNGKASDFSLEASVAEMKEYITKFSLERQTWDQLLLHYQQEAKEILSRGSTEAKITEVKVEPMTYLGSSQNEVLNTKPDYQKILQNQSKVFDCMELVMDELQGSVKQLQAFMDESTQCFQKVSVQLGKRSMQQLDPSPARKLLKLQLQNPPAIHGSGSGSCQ

[2] = target: MIS12 (subunit of Mis12C in the KMN structure) (human) (UniProt Q9H081); assay: as above

binding [1]: binds | binding [2]: binds
B1: PMF1 (subunit of Mis12C in the KMN structure) (protein, UniProt Q6P1K2 1-205)
chain: MAEASSANLGSGCEEKRHEGSSSESVPPGTTISRVKLLDTMVDTFLQKLVAAGSYQRFTDCYKCFYQLQPAMTQQIYDKFIAQLQTSIREEISDIKEEGNLEAVLNALDKIVEEGKVRKEPAWRPSGIPEKDLHSVMAPYFLQQRDTLRRHVQKQEAENQQLADAVLAGRRQVEELQLQVQAQQQAWQALHREQRELVAVLREPE
